# In publication PMC12040169 (PLOS Biology, 2025):
# The list shows a part of the results.
# System: T1, CTL2-GFP (C. trachomatis L2/434/Bu, GFP-expressing)
# T1 construct: L2/434/Bu, GFP-expressing
# Parameters: species or system HeLa; Intracellular C. trachomatis growth in HeLa cells, bulk GFP fluorescence relative to DMSO
# Conditions: bulk GFP, single well; 28.5 h, 10 µM; inhibitor
row,SMILES,% of control remaining [%]
1,c1cncc(-c2cnn(-c3ccc4[nH]ccc4c3)n2)c1 [CBK112820],149.633
2,COc1cc(C)nc(OCCNS(=O)(=O)c2cc(C)ccc2C)n1 [CBK058870],164.581
3,COc1ccc(C(=O)N2CCC3(CCCN(CC(=O)Nc4ncccn4)C3)C2)cc1OC (centres unmarked) [CBK132860],87.2873
4,CC(C)c1ccc(CN2CCCN(c3cc(OCCc4c[nH]c5ccccc45)ncn3)CC2)cc1 [CBK083280T],100.722
5,Cc1c(C(=O)N2CCNC(=O)C2(C)C)nnn1Cc1ccc(F)cc1F [CBK305461],145.767
6,CC(=O)c1c(CSc2ccccc2)nn2c1CCCC2 [CBK016543],115.443
7,CN(C)CCN1CCN(c2nc(-c3ccc4[nH]ccc4c3)cn3ccnc23)CC1 [CBK036587],173.685
8,CCCn1cc(CN2C3CCC2CC(O)(c2ccc(F)cc2)C3)cn1 (centres unmarked) [CBK282971],115.621
9,COC(=O)c1cc(C#N)c(=O)n(CC(O)COCc2ccco2)c1 (centres unmarked) [CBK305718],112.589
10,COc1ccc([C@]23CC[C@H](NC(=O)Nc4ccc(F)cc4F)C[C@H]2N(C)CC3)cc1OC [CBK066917T],101.692
11,Nc1nc(CN2CCN(c3ccccc3F)CC2)nc(N2CCCc3ccccc32)n1 [CBK270234],147.887
12,N#Cc1ccccc1-c1ccc(CSc2cccc(F)c2)cc1 [CBK002920],83.1704
13,c1cc(CCCOc2cncc(N3CCCC3)n2)ccn1 [CBK115760],149.379
14,O=C(NCc1nnc(-c2cccs2)o1)C1(c2ccc(F)cc2)CC1 [CBK284638],160.893
15,O=C(O)CCC(=O)Nc1ccc(Br)cc1C(=O)c1ccc(Cl)cc1 [CBK262601],102.979
16,COc1ccc2[nH]c3c(c2c1)CCN(C(C)=O)C31CCN(CCOc2ccccc2)C1 (centres unmarked) [CBK039626],126.889
17,CCN1C(=O)COC[C@@H]1[C@H](O)c1ccc(NC(=O)Cc2ccc(OC)cc2)cc1 [CBK289676],116.052
18,CSc1ncc(CNC(=O)C2CCOc3ccccc3C2)n1C (centres unmarked) [CBK307611],132.571
19,c1ccc(CCN2CCN(CCC(c3ccccc3)c3ccccc3)CC2)cc1 [CBK126432],94.6351
20,CN(C)S(=O)(=O)c1ccc(Cl)c(C(=O)Nc2cccc(C(=O)O)c2)c1 [CBK265727],198.469
21,Cc1nn(C)c(C)c1NC(=O)c1ccc(S(=O)(=O)N(C)C)cc1 [CBK266059],123.585
22,Oc1cc2nnnn2nc1-c1ccccc1 [CBK019550],131.417
23,C/C(=N/OCC(=O)Nc1oc(-c2ccccc2)c(-c2ccccc2)c1C#N)c1cccs1 [CBK262932],100
24,O=S(=O)(NCc1nc2ccccc2[nH]1)c1ccccc1 [CBK269460],125.282
25,O=C(NC[C@H]1O[C@@H](CC(=O)N2CCCC2)[C@H](O)[C@@H]1O)c1cccc(F)c1 [CBK288908],112.969
26,C=CCNC(=O)C[C@@H]1CCN(C(=O)c2ccnc(Cl)c2)C[C@@H]1CC [CBK289136],118.705
27,Cc1ccc(C(=O)O)cc1NC(=S)NC1CC1 [CBK288397],149.834

# Part of the list above in order of length of the SMILES, smallest number first.
row,SMILES,% of control remaining [%]
14,O=C(NCc1nnc(-c2cccs2)o1)C1(c2ccc(F)cc2)CC1 [CBK284638],160.893
20,CN(C)S(=O)(=O)c1ccc(Cl)c(C(=O)Nc2cccc(C(=O)O)c2)c1 [CBK265727],198.469
17,CCN1C(=O)COC[C@@H]1[C@H](O)c1ccc(NC(=O)Cc2ccc(OC)cc2)cc1 [CBK289676],116.052
25,O=C(NC[C@H]1O[C@@H](CC(=O)N2CCCC2)[C@H](O)[C@@H]1O)c1cccc(F)c1 [CBK288908],112.969

# (listing goes on)

row,SMILES,% of control remaining [%]
1,CC(CN(C)C(=O)CC1CCN(C(=O)CC2CCCCC2)CC1)c1ccccc1 (centres unmarked) [CBK286268],130.541
2,CCN(CCO)C(=O)C(C)Oc1cc(C)ccc1Cl (centres unmarked) [CBK306019],90.7525
3,COc1ccc(C(=O)Nc2nnc(-c3ccccc3OC)o2)cc1OC [CBK287589],121.283
4,Cn1nccc1-c1cc(C(=O)NC2(C)CCC2)c2ccccc2n1 [CBK281605],147.454
5,O=S(=O)(c1ccc(Br)cc1)N1CCCCC1CO (centres unmarked) [CBK051127],88.0219
6,COc1ccc([C@@]23CCC(CC(=O)O)C[C@@H]2N(C)CC3)cc1OC (some centres unmarked) [CBK045765A],101.063
7,COc1ccc(-c2cnc(N)c(NCc3cccnc3)n2)c(OC)c1OC [CBK063540],168.218
8,O=C(CN1C(=O)c2ccccc2C1=O)Nc1sc2c(c1C(=O)NCC1CCCO1)CCC2 (centres unmarked) [CBK265583],107.536
9,O=C(c1cccnc1)N1C[C@@H]2OCC(=O)N(Cc3ccc(F)cc3)[C@@H]2C1 [CBK289691],160.935
10,O=C(O)C1CCCN(C(=O)NCC2COc3ccccc3O2)C1 (centres unmarked) [CBK161342],96.0432
11,O=C(Cc1ccc(F)cc1)N1CCC(O)(c2ccccn2)CC1 [CBK283588],146.414
12,O=C(O)COc1ccc(N2C(=O)c3ccc(-c4nc5ccccc5c(=O)o4)cc3C2=O)cc1 [CBK265659],90.8182
13,O=C(NCc1nc2ccccc2[nH]1)c1ccc2[nH]ccc2c1 [CBK149079],104.793
14,Cc1ccc(S(=O)(=O)Nc2c(C(=O)O)sc3ncccc23)cc1[N+](=O)[O-] [CBK049983],114.765
15,C=CCn1c2ccccc2c2nnc(SCC(=O)N3c4ccccc4Sc4ccccc43)nc21 [CBK263237],87.4357
16,CCOC(=O)Cn1nc(C)n2c(cc3sc(C)cc32)c1=O [CBK284096],132.807
17,c1ccc2c(c1)nc1n2CN(Cc2ccc3c(c2)OCO3)CN1 [CBK268087],94.0179
18,O=C(O)CSc1ncnc2ccccc12 [CBK262069],100
19,Nc1ccccc1NC(=O)NC(=O)c1ccccc1 [CBK022767],127.801
20,O=C(NCCCc1ccccn1)c1ccnc2ccc(Cl)cc12 [CBK282618],103.32
21,OCc1nc2ccccc2n1CCCCOc1ccccc1Cl [CBK270117],103.34
22,CCn1cc(CCC(=O)NC2CCCOC2)c2ccccc21 (centres unmarked) [CBK283256],147.01
23,Nc1nonc1NC(=O)N/N=C/c1ccc(C(F)(F)F)cc1 [CBK261813],82.9661
24,Cc1ccc(CNC(=O)Cc2csc(N3CCCC3=O)n2)n1C [CBK305642],142.897
25,O=C(c1ccc(F)cc1)[C@H]1CCCN(C(=O)C2CC2)C1 [CBK284326],116.922
26,CC(CCCc1ccccc1)NC(=O)c1cc2c([nH]c1=O)CCC2 (centres unmarked) [CBK281528],150.687
27,CN1C(=O)C(CCNc2ccccc2)S/C1=N/C1CC2C=CC1C2 (centres unmarked) [CBK073812],63.5694

# Part of the list above, tab-delimited:
row	SMILES	% of control remaining [%]
10	O=C(O)C1CCCN(C(=O)NCC2COc3ccccc3O2)C1 (centres unmarked) [CBK161342]	96.0432
16	CCOC(=O)Cn1nc(C)n2c(cc3sc(C)cc32)c1=O [CBK284096]	132.807

# (next part)

row,SMILES,% of control remaining [%]
1,Clc1cccc(-c2cncc(N3CCN(Cc4ccccn4)CC3)n2)c1 [CBK037282],157.354
2,COc1ccc(NC(=O)c2cc(-c3cccnc3)nc3c(C)c(C)ccc23)c(OC)c1 [CBK267746],117.512
3,CC(=O)N1CCC[C@H]2NC(=O)CNC(=O)C3(C/C=C/C[C@H]21)CCN(Cc1ccccc1O)CC3 [CBK292054],129.138
4,O=C(NC1CC1)c1cc(C2CCCN(Cc3cccc(F)c3)C2)no1 (centres unmarked) [CBK284588],79.1336
5,O=C(c1cc2c(F)cccc2[nH]1)N(CCO)CCc1ccncc1 [CBK281644],117.478
6,Nc1nc2nn([C@H]3C[C@@H](O)[C@@H](CO)O3)cc2c(=O)[nH]1 [CBK201218],81.8582
7,Cc1c(C(=O)N2CCC(CN)C2)nnn1-c1ccc2ncccc2c1 (centres unmarked) [CBK304734],129.198
8,c1ccc(COc2ccc(N3CCNCC3)cc2)cc1 [CBK012776C],128.025
9,CCCCC(Sc1nc(N)cc(Cl)n1)c1cc(C)ccn1 (centres unmarked) [CBK016827],63.0681
10,COC(C)(C(=O)Nc1ccc(Cl)nc1)c1cccc2ccccc12 (centres unmarked) [CBK091350],92.4925
11,N#Cc1ccc(NC(=O)NCCc2cccs2)cc1 [CBK043736],108.376
12,Cc1c(Cl)cccc1S(=O)(=O)Nc1c(C(=O)O)[nH]c2ccccc12 [CBK049889],118.002
13,Cc1cc(C(=O)CSc2nnnn2-c2ccc(O)cc2)c(C)n1Cc1ccc(F)cc1 [CBK297081],140.279
14,O=C(O)CCCn1cc(NC(=O)c2ccc(Br)o2)cn1 [CBK270042],93.5127
15,COc1ccc(N2C(=O)CSC23C(=O)Nc2ccc(Br)cc23)cc1 (centres unmarked) [CBK093454],104.603
16,NCC1OCCc2ccccc21 (centres unmarked) [CBK027717],114.43
17,c1ccc(CCN2CCC(Oc3cncc(OCCN4CCOCC4)n3)C2)cc1 (centres unmarked) [CBK084497],140.858
18,CCN(Cc1ccccc1)C(=O)Nc1ccc(C)cc1 [CBK155248],93.8219
19,O=C(NCCN1CCCCC1)c1cccc(Oc2ccccc2)c1 [CBK270335],100.913
20,Cc1cc(C)n(CC2(CNC(=O)C(c3ccccc3F)N(C)C)CC2)n1 (centres unmarked) [CBK306920],113.553
21,O=C(c1ccccc1Cl)N1N=C(c2cccnc2)CC1c1ccccc1O (centres unmarked) [CBK269182],156.323
22,CC(C(=O)N1CCOCC1)N(c1cc(Cl)ccc1Cl)S(C)(=O)=O (centres unmarked) [CBK270270],137.597
23,CC(NC(=O)CCc1cccnc1)c1nc(-c2ccncc2)cs1 (centres unmarked) [CBK306243],121.377
24,Cc1ccc(-c2nnc(CNC(=O)c3cccc(F)c3F)o2)s1 [CBK284641],130.254
25,Cn1nccc1NS(=O)(=O)c1cccc2cccnc12 [CBK062069],96.4433
26,COCCNc1nc(-c2cc(C(C)C)ccc2OC)ccc1C(=O)NCCNC(C)=O [CBK105985],100
